Measurements published in the supplement of paper PMC10849652.
The other results are listed elsewhere or left out. Residues, ends and D or L forms follow the SMILES beside them. *: point of attachment. Cbz = O=C(OCc1ccccc1)*

By UniProt entry, the sequences of proteins in these tests, tags left out. Where a name states a change or a piece, a line headed by the entry shows the natural chain unless it says otherwise.
UniProt Q93052: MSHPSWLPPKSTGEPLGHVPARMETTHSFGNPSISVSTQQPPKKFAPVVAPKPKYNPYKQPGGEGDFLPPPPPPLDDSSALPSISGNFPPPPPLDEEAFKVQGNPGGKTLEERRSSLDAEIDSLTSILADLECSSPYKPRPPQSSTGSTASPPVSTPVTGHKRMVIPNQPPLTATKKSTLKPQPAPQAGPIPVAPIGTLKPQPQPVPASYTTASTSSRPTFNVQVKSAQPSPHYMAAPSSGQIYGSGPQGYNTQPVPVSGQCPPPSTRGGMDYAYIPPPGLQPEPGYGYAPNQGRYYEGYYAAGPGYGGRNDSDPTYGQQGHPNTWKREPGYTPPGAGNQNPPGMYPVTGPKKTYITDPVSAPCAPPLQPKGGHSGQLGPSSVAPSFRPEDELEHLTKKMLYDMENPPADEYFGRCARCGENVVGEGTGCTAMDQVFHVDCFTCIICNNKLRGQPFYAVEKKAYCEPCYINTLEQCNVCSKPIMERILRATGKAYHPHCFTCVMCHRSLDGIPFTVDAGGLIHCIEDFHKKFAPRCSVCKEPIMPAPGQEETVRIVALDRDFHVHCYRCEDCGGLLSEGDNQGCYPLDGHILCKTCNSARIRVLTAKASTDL
UniProt P61968: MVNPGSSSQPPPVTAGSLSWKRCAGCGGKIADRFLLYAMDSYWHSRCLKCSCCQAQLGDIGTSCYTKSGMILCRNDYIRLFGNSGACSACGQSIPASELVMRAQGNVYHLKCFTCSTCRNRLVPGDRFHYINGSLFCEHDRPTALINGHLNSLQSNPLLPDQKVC
UniProt O95214: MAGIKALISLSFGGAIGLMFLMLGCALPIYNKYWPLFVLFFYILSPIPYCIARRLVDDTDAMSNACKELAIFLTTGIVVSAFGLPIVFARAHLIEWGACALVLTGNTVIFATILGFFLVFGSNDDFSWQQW
UniProt Q8WVP7: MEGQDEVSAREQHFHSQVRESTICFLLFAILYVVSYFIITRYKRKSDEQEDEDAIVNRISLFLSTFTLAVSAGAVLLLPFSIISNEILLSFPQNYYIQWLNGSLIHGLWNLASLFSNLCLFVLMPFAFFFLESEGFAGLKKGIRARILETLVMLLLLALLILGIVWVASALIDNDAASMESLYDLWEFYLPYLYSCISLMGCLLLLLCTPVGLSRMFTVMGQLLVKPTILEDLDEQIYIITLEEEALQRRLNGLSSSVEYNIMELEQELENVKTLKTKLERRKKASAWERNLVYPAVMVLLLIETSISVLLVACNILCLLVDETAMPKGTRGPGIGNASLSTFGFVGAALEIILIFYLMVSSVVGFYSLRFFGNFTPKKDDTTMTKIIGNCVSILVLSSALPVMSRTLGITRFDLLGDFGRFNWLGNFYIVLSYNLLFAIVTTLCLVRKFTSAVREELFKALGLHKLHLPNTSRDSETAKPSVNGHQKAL
UniProt Q6PJG9: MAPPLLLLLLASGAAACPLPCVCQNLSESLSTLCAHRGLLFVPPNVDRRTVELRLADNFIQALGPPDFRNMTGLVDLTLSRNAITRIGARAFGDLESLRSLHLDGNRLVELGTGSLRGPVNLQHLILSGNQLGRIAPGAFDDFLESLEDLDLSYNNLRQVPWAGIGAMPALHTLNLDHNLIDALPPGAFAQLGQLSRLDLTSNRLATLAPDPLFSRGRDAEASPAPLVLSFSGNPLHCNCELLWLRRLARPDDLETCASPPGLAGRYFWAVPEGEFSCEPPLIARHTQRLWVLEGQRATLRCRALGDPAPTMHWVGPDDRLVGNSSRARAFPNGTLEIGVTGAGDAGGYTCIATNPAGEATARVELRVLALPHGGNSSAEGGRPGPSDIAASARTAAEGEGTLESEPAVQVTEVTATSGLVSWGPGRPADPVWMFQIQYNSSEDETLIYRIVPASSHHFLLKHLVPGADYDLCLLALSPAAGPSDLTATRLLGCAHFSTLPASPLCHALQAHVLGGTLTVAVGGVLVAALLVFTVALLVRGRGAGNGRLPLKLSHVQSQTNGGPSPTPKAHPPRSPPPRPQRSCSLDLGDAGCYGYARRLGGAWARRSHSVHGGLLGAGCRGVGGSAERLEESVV
UniProt Q86UP2: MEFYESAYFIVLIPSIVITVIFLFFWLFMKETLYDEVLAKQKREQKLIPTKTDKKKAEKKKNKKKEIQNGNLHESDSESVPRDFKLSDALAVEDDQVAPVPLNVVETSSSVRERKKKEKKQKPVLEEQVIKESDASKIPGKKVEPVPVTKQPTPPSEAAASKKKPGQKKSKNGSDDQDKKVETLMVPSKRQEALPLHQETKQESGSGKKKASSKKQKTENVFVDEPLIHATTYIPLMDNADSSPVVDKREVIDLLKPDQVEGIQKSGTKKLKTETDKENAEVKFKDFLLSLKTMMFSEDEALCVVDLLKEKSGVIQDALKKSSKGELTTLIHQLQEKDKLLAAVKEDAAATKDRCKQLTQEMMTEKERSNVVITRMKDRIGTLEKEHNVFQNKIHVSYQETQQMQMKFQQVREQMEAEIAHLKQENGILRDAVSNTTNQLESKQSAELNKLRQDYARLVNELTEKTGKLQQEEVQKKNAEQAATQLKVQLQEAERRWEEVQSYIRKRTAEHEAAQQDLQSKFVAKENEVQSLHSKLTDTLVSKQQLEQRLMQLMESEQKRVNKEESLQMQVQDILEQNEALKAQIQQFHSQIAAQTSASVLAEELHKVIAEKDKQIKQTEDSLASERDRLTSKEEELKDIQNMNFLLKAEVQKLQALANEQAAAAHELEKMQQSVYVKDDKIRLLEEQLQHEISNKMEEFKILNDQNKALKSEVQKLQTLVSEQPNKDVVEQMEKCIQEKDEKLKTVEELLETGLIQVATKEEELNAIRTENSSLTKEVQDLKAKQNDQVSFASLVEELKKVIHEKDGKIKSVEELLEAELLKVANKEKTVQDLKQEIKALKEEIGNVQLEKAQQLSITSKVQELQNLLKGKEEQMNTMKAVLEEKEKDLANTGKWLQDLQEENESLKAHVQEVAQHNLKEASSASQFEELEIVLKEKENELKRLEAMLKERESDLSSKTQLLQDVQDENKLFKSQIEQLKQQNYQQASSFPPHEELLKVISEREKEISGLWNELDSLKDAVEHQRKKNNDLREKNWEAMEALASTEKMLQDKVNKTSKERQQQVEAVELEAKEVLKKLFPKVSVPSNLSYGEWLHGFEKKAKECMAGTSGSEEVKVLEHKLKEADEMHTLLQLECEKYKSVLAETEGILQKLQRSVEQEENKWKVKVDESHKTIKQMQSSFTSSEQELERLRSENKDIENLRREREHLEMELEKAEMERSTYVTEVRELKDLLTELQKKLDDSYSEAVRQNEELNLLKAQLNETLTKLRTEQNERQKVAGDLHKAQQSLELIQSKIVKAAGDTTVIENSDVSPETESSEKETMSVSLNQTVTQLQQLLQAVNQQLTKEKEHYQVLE
UniProt O75581: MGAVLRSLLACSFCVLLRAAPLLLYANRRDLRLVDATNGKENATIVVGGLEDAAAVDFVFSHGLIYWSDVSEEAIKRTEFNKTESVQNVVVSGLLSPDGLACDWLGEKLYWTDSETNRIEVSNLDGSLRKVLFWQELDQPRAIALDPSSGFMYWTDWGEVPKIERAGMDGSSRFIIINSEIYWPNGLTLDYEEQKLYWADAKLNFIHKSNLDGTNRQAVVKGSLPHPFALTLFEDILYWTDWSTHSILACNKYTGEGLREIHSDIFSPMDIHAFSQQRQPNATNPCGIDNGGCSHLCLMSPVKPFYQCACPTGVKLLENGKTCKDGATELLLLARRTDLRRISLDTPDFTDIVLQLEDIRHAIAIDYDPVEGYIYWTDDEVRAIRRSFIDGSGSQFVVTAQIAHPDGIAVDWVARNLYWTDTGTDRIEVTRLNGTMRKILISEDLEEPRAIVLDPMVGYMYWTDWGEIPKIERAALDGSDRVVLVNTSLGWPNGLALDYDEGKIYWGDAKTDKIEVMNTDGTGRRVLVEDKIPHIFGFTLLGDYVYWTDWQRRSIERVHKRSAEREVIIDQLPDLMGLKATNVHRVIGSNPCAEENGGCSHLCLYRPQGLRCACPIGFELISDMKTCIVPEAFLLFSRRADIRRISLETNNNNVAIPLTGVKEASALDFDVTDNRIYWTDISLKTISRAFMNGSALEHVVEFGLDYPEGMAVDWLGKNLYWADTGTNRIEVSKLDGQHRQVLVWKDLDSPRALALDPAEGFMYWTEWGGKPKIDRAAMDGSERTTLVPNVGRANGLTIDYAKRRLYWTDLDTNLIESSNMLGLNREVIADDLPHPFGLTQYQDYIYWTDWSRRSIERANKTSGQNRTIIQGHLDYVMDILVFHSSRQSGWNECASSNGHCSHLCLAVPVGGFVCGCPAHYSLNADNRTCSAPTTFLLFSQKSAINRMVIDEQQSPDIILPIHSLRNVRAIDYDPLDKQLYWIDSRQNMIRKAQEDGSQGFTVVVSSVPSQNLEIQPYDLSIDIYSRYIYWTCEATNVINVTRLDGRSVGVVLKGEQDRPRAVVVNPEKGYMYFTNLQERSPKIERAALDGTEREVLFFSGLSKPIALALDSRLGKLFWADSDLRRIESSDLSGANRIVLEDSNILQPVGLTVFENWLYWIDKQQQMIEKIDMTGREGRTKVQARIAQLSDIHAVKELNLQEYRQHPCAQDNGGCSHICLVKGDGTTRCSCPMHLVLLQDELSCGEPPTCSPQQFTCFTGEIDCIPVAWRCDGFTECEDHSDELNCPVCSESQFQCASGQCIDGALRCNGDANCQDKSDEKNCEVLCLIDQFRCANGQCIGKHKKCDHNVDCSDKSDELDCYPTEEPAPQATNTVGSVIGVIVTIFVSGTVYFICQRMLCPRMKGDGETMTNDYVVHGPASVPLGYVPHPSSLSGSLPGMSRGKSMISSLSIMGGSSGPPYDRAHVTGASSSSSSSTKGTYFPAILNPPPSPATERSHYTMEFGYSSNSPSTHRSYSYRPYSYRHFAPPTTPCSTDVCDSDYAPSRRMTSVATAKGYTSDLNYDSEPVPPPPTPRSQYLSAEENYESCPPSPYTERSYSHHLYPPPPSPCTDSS
UniProt Q9BU23: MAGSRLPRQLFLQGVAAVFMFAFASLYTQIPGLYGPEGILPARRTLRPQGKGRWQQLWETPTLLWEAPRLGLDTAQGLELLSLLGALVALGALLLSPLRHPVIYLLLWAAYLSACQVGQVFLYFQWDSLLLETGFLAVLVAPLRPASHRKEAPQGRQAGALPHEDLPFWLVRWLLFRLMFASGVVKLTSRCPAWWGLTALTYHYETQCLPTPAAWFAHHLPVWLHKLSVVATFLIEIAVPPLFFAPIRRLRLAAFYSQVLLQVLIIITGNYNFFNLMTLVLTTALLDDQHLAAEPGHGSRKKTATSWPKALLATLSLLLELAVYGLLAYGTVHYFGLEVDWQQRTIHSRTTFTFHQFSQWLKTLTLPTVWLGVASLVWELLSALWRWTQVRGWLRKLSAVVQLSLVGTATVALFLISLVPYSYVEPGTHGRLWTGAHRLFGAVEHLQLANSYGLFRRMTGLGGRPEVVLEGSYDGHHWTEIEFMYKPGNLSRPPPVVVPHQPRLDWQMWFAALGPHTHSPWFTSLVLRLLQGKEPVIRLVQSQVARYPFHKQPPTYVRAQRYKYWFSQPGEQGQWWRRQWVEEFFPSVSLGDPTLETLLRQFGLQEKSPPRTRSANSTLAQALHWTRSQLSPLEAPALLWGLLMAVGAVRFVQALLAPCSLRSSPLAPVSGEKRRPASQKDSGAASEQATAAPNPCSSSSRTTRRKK
UniProt Q4G0J3: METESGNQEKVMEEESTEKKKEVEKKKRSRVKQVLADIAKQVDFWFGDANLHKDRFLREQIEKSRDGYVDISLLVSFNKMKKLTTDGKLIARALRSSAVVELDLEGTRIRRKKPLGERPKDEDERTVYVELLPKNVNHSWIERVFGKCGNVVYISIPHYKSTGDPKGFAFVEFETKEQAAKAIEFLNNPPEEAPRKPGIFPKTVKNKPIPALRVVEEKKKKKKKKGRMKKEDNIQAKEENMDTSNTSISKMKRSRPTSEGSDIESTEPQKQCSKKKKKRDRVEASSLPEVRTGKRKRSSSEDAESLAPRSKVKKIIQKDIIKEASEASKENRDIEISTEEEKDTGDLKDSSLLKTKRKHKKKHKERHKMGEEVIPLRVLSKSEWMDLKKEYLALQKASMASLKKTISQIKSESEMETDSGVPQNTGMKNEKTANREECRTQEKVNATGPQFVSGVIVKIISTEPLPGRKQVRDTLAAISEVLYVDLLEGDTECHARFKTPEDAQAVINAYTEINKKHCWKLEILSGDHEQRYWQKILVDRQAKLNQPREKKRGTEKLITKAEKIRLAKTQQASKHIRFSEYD
UniProt Q96FQ7: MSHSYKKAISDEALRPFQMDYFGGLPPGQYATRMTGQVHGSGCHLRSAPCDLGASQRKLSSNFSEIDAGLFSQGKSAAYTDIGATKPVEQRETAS

Legend:
Experiment in all cases: log2 fold change, soluble protein after heating vs DMSO (PISA); higher = thermal stabilisation; K562 cells, 10 uM, 30 min; active = over 0.2 and 3.5 SD of the protein, either way, in both replicates (recomputed)
IRAK-1-4 Inhibitor I = compound: C1COCCN1CCN2C3=CC=CC=C3N=C2NC(=O)C4=CC(=CC=C4)[N+](=O)[O-] [IRAK-1-4 Inhibitor I]
Method in brief: (§1)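 Values are thermal stability changes relative to control samples and are taken from duplicates. They are stated as log2 fold changes. Before quantification by TMTpro 16plex LC-MS/MS with equalised channel sums, K562 cells at 2×10^6 cells/mL were treated with 10 μM compound for 30 min, heated in aliquots for 3 min across 48°C-58°C, pooled, extracted in PBS with 0.5% NP-40 at 4°C, and centrifuged at 21,000xg for 90 min to give the soluble supernatant.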

ibrutinib = compound: C=CC(=O)N1CCC[C@@H](n2nc(-c3ccc(Oc4ccccc4)cc3)c3c(N)ncnc32)C1 [ibrutinib]
Method in brief: as §1

[1] = compound: CC(C)(O)CC(=O)NCCn1ccc2ncnc(Nc3ccc(Oc4cccc(C(F)(F)F)c4)c(Cl)c3)c21
Method in brief: as §1

pinometostat = compound: CC(C)N(C[C@H]1O[C@@H](n2cnc3c(N)ncnc32)[C@H](O)[C@@H]1O)[C@H]1C[C@@H](CCc2nc3cc(C(C)(C)C)ccc3[nH]2)C1 [pinometostat]
Method in brief: as §1

[2] = compound: CC1=C(C(CC(=O)N1)C2=CC=C(C=C2)C(F)(F)F)C(=O)NC3=C(C=C4C(=C3)C=NN4)F
Method in brief: as §1

[3] = compound: CC(=O)c1cnc2ccc(-c3cc(Cl)c(O)c(Cl)c3)nc2c1N[C@H]1CC[C@H](CN(C)C)CC1
Method in brief: as §1

[4] = compound: CC(C)C1=C2N=C(C=C(N2N=C1)NCC3=CC=CC=C3)NCCCCCCN
Method in brief: as §1

[5] = compound: CC1=C(C2=C(C=C1)C(=O)C3=CC=CC=C3N2CCCN)C
Method in brief: as §1

ralimetinib = compound: CC(C)(C)Cn1c(N)nc2ccc(-c3[nH]c(C(C)(C)C)nc3-c3ccc(F)cc3)nc21 [ralimetinib]
Method in brief: as §1

[6] = compound: CC(C)C[C@@H](C=O)NC(=O)[C@H](CC(C)C)NC(=O)[C@H](CC(C)C)NC(=O)OCc1ccccc1
Method in brief: as §1

Measured: log2 fold change

LPP (UniProt Q93052)
inactive: IRAK-1-4 Inhibitor I 0.025 | ibrutinib 0.191 | [1] 0.063 | pinometostat -0.33 | [2] -0.145

LPL (UniProt P06858)
inactive: IRAK-1-4 Inhibitor I -0.058 | [3] 0 | [4] 0.057 | pinometostat 0.049 | [5] 0.131

LMO4 (UniProt P61968)
inactive: IRAK-1-4 Inhibitor I 0.071 | ibrutinib 0.099 | [3] -0.065 | ralimetinib 0.155 | [6] -0.043 | pinometostat -0.07 | [5] -0.009

LEPROTL1 isoform 2 (UniProt O95214)
inactive: IRAK-1-4 Inhibitor I -0.204 | ibrutinib 0.182 | [3] 0.083 | ralimetinib 0.181 | [6] -0.092 | pinometostat -0.165 | [2] 0.149 | [5] 0.106

LGALS8 isoform 2 (UniProt O00214)
inactive: IRAK-1-4 Inhibitor I -0.027 | ibrutinib -0.262 | [3] 0.049 | [1] 0.092 | [4] 0.123 | pinometostat 0.11 | [5] 0.096

LARP4 isoform 4 (UniProt Q71RC2)
inactive: IRAK-1-4 Inhibitor I -0.091 | ibrutinib 0.037 | [3] -0.128 | ralimetinib 0.068 | [1] 0.046 | [4] -0.19 | [6] 0.059 | pinometostat 0.114 | [5] -0.054

LRRC14 (UniProt Q15048)
inactive: IRAK-1-4 Inhibitor I -0.015 | ibrutinib -0.118 | [3] 0.032 | [4] 0.111 | pinometostat 0.033 | [2] 0.022 | [5] 0.152

LRG1 (UniProt P02750)
inactive: IRAK-1-4 Inhibitor I 0.016 | ralimetinib -0.301 | [1] 0.291 | [4] 0.069 | [6] -0.075 | pinometostat 0.015 | [5] -0.182

LMNB1 (UniProt P20700)
inactive: IRAK-1-4 Inhibitor I -0.004 | ibrutinib -0.03 | [3] -0.22 | ralimetinib 0.015 | [1] 0.091 | [4] -0.048 | [6] 0.031 | pinometostat 0.011 | [5] -0.082

LONP2 (UniProt Q86WA8)
active: [6] -0.609
inactive: IRAK-1-4 Inhibitor I -0.016 | ibrutinib -0.023 | [3] -0.033 | ralimetinib 0.103 | [1] -0.135 | [4] 0.004 | pinometostat -0.008 | [5] -0.009

LMBR1 isoform 3 (UniProt Q8WVP7)
inactive: IRAK-1-4 Inhibitor I -0.013 | ibrutinib -0.006 | [3] -0.054 | ralimetinib -0.02 | [1] -0.037 | [4] -0.453 | [6] -0.004 | pinometostat 0.012 | [5] -0.244

L1TD1 (UniProt Q5T7N2)
inactive: IRAK-1-4 Inhibitor I 0.108 | [3] -0.223 | pinometostat 0.127 | [5] 0.092

LIMK1 (UniProt P53667)
inactive: IRAK-1-4 Inhibitor I 0.13 | ibrutinib 0.169 | [1] -0.13 | pinometostat 0.073 | [5] 0.051

LRFN4 (UniProt Q6PJG9)
inactive: IRAK-1-4 Inhibitor I 0.007 | ibrutinib 0.089 | [3] -0.134 | ralimetinib -0.049 | [1] -0.062 | [4] -0.063 | [6] 0.086 | pinometostat -0.094 | [5] 0.05

LIN9 isoform 2 (UniProt Q5TKA1)
inactive: IRAK-1-4 Inhibitor I -0.108 | ibrutinib 0.053 | [3] -0.054 | ralimetinib 0.009 | [1] 0.008 | [6] 0.023 | pinometostat -0.034 | [5] -0.214

LDLRAP1 (UniProt Q5SW96)
inactive: IRAK-1-4 Inhibitor I 0.013 | ibrutinib -0.177 | ralimetinib -0.032 | [6] 0.028 | pinometostat 0.318
active: [4] -0.541

LIAS (UniProt O43766)
inactive: IRAK-1-4 Inhibitor I 0.029 | ibrutinib 0.005 | [3] 0.101 | ralimetinib -0.212 | [1] -0.003 | [4] -0.023 | [6] 0.131 | pinometostat -0.011 | [5] -0.01

KTN1 (UniProt Q86UP2)
active: [4] -0.343
inactive: IRAK-1-4 Inhibitor I -0.066 | ibrutinib -0.029 | [3] 0.065 | ralimetinib 0.098 | [1] 0 | [6] 0.072 | pinometostat 0.102 | [5] 0.071

LRP6 (UniProt O75581)
inactive: IRAK-1-4 Inhibitor I -0.091 | ibrutinib 0.083 | [3] 0 | [4] 0.16 | pinometostat -0.101 | [5] 0.012

LPCAT2 (UniProt Q7L5N7)
inactive: IRAK-1-4 Inhibitor I -0.244 | ibrutinib -0.22 | [3] -0.105 | ralimetinib -0.141 | [1] -0.111 | [4] -0.16 | [6] 0 | pinometostat -0.127 | [5] 0.142

LARP1 (UniProt Q6PKG0)
active: [5] -0.303
inactive: IRAK-1-4 Inhibitor I -0.131 | ibrutinib 0.009 | [3] -0.059 | ralimetinib 0.031 | [1] 0 | [4] -0.088 | [6] 0.036 | pinometostat 0.109

LRBA, A0A494BZW2
inactive: IRAK-1-4 Inhibitor I 0.02 | ibrutinib 0.018 | [3] -0.009 | ralimetinib 0.01 | [1] 0 | [4] -0.436 | [6] 0.041 | pinometostat 0.076 | [5] -0.237

L2HGDH (UniProt Q9H9P8)
inactive: IRAK-1-4 Inhibitor I 0.095 | ibrutinib 0.028 | [3] -0.065 | ralimetinib 0.003 | [1] -0.092 | [4] -0.069 | [6] -0.026 | pinometostat 0 | [5] 0.029

LMF2 (UniProt Q9BU23)
inactive: IRAK-1-4 Inhibitor I 0.006 | ibrutinib -0.035 | [3] 0.001 | ralimetinib -0.008 | [1] -0.029 | [4] -0.152 | [6] 0.08 | pinometostat 0.008 | [5] 0.001

LBR (UniProt Q14739)
inactive: IRAK-1-4 Inhibitor I -0.044 | ibrutinib -0.092 | [3] 0.038 | ralimetinib -0.001 | [1] -0.211 | [4] -0.168 | [6] -0.083 | pinometostat 0.211 | [5] 0.188

LARP7 isoform 3 (UniProt Q4G0J3)
active: [5] -0.383
inactive: IRAK-1-4 Inhibitor I -0.061 | ibrutinib 0.031 | [3] 0.063 | ralimetinib 0.111 | [1] 0.021 | [4] -0.246 | [6] -0.057 | pinometostat 0.05

LCMT2 (UniProt O60294)
inactive: IRAK-1-4 Inhibitor I 0.042 | ibrutinib 0.033 | [1] 0.01 | [4] -0.073 | pinometostat 0.044 | [2] -0.143

LMTK2 (UniProt Q8IWU2)
inactive: IRAK-1-4 Inhibitor I -0.025 | ibrutinib -0.237 | [3] -0.118 | ralimetinib 0.059 | [1] 0.098 | [4] -0.185 | [6] 0.143 | pinometostat 0.113 | [5] -0.06

LANCL3 (UniProt Q6ZV70)
inactive: IRAK-1-4 Inhibitor I -0.017 | ibrutinib -0.097 | [3] -0.018 | [1] -0.068 | pinometostat 0.03 | [2] 0.061

LDHD (UniProt Q86WU2)
inactive: [4] 0.062

LHFPL2 (UniProt Q6ZUX7)
inactive: [1] 0.092 | [4] -0.266 | [5] 0.063

Quoted from above (8 entries):
LARP1 (UniProt Q6PKG0)
active: [5] -0.303
inactive: IRAK-1-4 Inhibitor I -0.131 | ibrutinib 0.009 | [3] -0.059 | ralimetinib 0.031 | [1] 0 | [4] -0.088 | [6] 0.036 | pinometostat 0.109

LRBA, A0A494BZW2
inactive: IRAK-1-4 Inhibitor I 0.02 | ibrutinib 0.018 | [3] -0.009 | ralimetinib 0.01 | [1] 0 | [4] -0.436 | [6] 0.041 | pinometostat 0.076 | [5] -0.237

L2HGDH (UniProt Q9H9P8)
inactive: IRAK-1-4 Inhibitor I 0.095 | ibrutinib 0.028 | [3] -0.065 | ralimetinib 0.003 | [1] -0.092 | [4] -0.069 | [6] -0.026 | pinometostat 0 | [5] 0.029

LMF2 (UniProt Q9BU23)
inactive: IRAK-1-4 Inhibitor I 0.006 | ibrutinib -0.035 | [3] 0.001 | ralimetinib -0.008 | [1] -0.029 | [4] -0.152 | [6] 0.08 | pinometostat 0.008 | [5] 0.001

LBR (UniProt Q14739)
inactive: IRAK-1-4 Inhibitor I -0.044 | ibrutinib -0.092 | [3] 0.038 | ralimetinib -0.001 | [1] -0.211 | [4] -0.168 | [6] -0.083 | pinometostat 0.211 | [5] 0.188

LARP7 isoform 3 (UniProt Q4G0J3)
active: [5] -0.383
inactive: IRAK-1-4 Inhibitor I -0.061 | ibrutinib 0.031 | [3] 0.063 | ralimetinib 0.111 | [1] 0.021 | [4] -0.246 | [6] -0.057 | pinometostat 0.05

LCMT2 (UniProt O60294)
inactive: IRAK-1-4 Inhibitor I 0.042 | ibrutinib 0.033 | [1] 0.01 | [4] -0.073 | pinometostat 0.044 | [2] -0.143

LMTK2 (UniProt Q8IWU2)
inactive: IRAK-1-4 Inhibitor I -0.025 | ibrutinib -0.237 | [3] -0.118 | ralimetinib 0.059 | [1] 0.098 | [4] -0.185 | [6] 0.143 | pinometostat 0.113 | [5] -0.06

(listing goes on)

LINC00526 (UniProt Q96FQ7)
inactive: [4] 0.002
